Tested on: C33A cells
Test: Pulse-chase ([35S]-methionine-cysteine) protein half-life in transfected C33A cells
Type: cell-based, human
Settings: immunoprecipitation with 12CA5

E2F-4: human E2F-4 transcription factor, HA-tagged, expressed from pRc-HA-E2F-4
half-life, wild-type E2F-4 versus ΔE2F-4: 2 h

ΔE2F-4: carboxy-terminal deletion mutant of E2F-4 encoding amino acids 1-301, lacking the p107 interaction surface
half-life, wild-type E2F-4 versus ΔE2F-4: 18 h

From US6368809B1, “E2F ubiquitination domain, and assays for inhibitors and enhancers of E2F ubiquitination” (Prolifix Limited, priority 1996, dated 2002)
